Laboratory results taken from the supplement of paper PMC12823440, “Inhibitors supercharge kinase turnover through native proteolytic circuits” (Nature, 2025).
Where a name gives a salt, the structure may show the parent alone. The list shows a part of the results. The calls rarely recur for the same compound in another form.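 Kinases were expressed as nanoluciferase fusions in K562 cells and luminescence was read every 4 h between 2 and 18 h as percent of control, DMSO set to 100% and a positive control to 0%. A time point counts as decreased when the signal drops significantly (2 sigma). The hit call is the authors' own, does not follow from the count of time points alone, and its rule is not shown.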

Amino acid sequences for entries named in this document (tags omitted). A change or cut given only in a name is not applied to a line headed by its entry.
UniProt P50750, whole entry: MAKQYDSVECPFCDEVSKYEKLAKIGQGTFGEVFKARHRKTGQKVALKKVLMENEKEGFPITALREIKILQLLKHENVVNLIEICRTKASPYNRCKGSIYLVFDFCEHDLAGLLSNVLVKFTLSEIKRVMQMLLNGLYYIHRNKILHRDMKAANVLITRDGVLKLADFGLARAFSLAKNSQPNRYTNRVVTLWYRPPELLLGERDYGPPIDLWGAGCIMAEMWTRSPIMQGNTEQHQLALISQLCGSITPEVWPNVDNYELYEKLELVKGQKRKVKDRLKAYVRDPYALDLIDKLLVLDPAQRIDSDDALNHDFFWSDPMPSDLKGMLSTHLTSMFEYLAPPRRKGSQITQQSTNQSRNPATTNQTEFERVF
UniProt O96017, whole entry: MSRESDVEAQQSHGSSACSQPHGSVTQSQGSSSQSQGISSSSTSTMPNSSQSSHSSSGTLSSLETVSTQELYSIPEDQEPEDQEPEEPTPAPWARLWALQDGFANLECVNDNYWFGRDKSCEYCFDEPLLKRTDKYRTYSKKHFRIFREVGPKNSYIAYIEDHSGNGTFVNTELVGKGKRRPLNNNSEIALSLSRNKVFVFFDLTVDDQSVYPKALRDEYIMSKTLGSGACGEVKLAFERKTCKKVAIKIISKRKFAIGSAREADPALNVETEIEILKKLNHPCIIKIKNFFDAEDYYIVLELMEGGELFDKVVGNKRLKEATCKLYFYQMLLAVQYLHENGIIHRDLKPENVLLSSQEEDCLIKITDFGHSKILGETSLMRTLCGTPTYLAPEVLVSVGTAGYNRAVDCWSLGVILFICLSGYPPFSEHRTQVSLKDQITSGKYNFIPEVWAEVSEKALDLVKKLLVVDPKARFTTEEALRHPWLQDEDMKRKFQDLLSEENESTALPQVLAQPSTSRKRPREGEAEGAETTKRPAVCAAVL
UniProt P07333, whole entry: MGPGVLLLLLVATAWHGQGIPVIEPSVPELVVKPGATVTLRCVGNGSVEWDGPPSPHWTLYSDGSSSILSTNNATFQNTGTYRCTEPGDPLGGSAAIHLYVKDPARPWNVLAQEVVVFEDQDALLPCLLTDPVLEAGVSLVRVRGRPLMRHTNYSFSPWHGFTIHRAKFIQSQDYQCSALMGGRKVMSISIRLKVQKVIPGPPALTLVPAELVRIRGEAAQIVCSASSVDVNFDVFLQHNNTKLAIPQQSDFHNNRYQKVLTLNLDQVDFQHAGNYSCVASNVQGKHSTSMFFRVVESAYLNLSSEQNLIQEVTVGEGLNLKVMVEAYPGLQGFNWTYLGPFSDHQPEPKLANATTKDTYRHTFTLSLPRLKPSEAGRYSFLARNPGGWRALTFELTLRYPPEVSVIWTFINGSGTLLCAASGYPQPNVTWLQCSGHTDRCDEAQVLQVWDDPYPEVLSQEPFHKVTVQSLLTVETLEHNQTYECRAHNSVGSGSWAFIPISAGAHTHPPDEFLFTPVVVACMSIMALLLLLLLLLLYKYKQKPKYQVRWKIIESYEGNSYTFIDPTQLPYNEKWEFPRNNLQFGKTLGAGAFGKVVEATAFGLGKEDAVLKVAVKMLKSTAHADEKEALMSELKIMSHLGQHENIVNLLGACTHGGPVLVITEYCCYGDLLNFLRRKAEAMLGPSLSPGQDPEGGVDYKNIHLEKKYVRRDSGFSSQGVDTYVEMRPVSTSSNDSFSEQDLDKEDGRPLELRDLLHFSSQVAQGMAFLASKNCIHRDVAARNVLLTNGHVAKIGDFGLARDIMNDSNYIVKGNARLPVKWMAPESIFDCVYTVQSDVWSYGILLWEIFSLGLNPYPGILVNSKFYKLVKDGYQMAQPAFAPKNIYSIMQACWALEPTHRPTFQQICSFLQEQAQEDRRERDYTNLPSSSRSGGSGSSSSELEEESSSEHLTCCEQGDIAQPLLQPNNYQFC
UniProt P48729: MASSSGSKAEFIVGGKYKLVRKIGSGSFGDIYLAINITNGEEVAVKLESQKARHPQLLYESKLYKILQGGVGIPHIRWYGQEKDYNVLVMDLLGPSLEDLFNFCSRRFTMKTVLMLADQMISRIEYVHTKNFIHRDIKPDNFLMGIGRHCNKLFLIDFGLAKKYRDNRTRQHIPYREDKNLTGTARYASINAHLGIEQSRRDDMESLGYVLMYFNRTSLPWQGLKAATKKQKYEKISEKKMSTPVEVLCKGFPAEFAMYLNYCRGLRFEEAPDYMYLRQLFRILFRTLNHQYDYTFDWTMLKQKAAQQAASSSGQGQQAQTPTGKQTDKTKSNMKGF
UniProt P48730: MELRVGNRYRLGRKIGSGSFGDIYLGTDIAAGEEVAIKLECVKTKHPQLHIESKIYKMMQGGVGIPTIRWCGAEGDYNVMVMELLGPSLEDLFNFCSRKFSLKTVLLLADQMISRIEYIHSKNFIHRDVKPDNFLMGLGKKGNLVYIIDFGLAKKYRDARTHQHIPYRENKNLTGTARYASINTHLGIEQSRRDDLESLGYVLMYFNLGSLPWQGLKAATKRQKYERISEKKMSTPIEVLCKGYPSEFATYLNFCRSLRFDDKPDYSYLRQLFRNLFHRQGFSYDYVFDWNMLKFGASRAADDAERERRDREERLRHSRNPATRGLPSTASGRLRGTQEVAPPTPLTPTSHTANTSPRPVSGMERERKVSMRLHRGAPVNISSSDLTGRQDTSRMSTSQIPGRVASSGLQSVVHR
UniProt Q9Y463, whole entry, looked up: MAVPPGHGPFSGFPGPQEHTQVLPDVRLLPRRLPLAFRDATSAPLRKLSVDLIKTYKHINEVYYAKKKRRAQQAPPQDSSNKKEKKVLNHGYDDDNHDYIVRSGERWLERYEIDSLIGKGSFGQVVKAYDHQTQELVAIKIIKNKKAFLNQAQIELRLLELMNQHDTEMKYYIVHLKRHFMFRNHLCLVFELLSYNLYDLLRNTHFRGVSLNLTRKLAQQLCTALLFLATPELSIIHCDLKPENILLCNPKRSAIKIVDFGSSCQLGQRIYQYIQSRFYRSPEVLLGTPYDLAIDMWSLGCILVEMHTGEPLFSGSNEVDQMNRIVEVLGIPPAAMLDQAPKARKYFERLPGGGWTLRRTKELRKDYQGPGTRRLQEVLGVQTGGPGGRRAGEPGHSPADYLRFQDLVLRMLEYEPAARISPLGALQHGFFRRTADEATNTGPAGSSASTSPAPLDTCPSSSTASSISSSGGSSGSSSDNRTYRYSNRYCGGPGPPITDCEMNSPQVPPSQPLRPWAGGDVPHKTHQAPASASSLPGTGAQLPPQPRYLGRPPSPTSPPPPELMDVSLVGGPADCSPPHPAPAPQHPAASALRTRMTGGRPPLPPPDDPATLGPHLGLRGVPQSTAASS
UniProt Q92630: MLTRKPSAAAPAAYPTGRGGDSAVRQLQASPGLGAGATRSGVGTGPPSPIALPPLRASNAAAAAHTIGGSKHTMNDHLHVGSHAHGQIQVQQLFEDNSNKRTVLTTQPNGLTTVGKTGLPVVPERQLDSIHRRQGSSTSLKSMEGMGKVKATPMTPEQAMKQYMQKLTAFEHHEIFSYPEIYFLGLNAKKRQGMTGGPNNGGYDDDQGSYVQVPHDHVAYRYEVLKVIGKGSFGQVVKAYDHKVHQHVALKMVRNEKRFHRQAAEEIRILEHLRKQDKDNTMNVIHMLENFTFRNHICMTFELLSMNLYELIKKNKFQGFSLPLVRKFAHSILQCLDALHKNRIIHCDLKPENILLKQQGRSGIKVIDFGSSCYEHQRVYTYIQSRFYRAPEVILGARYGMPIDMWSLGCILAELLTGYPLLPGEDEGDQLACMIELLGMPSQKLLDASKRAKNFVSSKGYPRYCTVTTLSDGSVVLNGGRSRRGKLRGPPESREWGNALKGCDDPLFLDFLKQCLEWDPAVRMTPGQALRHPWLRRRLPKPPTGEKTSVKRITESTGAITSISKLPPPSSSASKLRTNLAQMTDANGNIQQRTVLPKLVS
UniProt P21860, whole entry: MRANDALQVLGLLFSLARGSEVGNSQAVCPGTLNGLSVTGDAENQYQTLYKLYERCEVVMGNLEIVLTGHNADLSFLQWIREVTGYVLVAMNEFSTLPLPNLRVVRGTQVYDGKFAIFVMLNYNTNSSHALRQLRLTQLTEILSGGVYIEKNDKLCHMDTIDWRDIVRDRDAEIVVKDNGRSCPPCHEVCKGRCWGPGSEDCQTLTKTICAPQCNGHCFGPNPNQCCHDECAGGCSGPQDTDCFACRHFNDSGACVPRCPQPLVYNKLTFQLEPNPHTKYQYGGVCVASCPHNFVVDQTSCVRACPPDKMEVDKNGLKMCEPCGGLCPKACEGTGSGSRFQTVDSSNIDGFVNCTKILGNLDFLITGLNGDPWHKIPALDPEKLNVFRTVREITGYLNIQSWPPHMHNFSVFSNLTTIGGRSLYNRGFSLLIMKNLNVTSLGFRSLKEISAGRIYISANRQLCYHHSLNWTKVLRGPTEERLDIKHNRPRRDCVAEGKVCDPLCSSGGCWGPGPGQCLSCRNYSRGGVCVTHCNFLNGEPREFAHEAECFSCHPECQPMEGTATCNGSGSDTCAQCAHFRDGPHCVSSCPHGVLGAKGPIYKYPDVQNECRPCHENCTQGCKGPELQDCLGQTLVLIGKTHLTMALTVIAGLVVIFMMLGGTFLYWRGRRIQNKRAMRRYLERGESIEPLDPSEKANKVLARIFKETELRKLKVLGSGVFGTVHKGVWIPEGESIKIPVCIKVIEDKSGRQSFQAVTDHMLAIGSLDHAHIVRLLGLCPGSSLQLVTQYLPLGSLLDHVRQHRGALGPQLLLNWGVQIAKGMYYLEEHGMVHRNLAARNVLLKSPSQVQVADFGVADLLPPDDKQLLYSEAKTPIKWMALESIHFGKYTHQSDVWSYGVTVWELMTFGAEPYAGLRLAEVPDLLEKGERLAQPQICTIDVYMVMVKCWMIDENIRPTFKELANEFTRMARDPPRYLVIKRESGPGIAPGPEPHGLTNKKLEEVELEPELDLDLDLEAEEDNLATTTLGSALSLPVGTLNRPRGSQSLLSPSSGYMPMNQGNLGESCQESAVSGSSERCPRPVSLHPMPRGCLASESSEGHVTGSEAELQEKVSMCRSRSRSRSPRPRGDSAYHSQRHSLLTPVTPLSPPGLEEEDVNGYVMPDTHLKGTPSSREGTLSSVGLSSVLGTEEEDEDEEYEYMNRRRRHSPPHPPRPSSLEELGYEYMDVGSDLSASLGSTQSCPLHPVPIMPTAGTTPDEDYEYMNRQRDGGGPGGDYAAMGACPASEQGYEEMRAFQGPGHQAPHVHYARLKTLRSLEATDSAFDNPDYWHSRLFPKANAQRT
UniProt Q15303, whole entry R711C: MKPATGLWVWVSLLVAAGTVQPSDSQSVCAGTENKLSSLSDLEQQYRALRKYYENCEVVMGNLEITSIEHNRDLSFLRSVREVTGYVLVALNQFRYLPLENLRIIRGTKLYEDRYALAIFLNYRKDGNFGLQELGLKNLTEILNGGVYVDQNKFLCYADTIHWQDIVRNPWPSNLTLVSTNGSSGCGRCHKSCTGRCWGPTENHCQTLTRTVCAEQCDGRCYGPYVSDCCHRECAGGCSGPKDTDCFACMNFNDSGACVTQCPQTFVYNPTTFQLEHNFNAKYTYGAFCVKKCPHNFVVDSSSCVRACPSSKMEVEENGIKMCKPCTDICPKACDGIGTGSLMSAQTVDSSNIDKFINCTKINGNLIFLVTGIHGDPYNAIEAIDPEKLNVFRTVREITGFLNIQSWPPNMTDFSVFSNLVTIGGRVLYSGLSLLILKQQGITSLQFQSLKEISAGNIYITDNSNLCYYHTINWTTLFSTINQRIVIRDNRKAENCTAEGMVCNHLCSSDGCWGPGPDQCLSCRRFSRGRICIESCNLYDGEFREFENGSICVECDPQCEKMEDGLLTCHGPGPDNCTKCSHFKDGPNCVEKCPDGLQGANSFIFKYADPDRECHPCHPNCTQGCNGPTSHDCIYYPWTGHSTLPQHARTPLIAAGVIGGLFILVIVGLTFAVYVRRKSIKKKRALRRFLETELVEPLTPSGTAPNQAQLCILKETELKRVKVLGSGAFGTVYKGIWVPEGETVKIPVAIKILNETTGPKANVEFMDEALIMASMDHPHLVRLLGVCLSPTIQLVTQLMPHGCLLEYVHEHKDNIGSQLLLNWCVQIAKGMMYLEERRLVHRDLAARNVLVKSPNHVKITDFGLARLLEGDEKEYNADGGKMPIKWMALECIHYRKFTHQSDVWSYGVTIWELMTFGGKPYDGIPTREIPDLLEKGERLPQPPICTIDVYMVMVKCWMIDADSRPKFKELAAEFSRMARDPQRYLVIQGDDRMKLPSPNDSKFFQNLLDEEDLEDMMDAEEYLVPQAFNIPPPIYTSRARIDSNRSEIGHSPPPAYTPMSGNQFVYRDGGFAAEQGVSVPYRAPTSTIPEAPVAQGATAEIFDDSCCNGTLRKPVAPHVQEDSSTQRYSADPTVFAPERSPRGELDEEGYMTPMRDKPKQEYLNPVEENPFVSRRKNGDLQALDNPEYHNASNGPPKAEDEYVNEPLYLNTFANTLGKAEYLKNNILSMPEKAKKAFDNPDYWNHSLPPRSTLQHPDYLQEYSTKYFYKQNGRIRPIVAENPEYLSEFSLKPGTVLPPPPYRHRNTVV

Experiments:
Assay in all cases: kinase-Nluc reporter destabilization hit call (1 = scored as downregulated) (binary); higher = compound decreases kinase abundance
Conditions in all cases: K562; 2-18 h
CDK7 = CDK7 (UniProt P50613)
CDK9 = CDK9 (UniProt P50750)
CHEK2 = CHEK2 (UniProt O96017)
CSF1R = CSF1R (UniProt P07333)
CSK = CSK (UniProt P41240)
CSNK1A1 = CSNK1A1 (UniProt P48729)
CSNK1D = CSNK1D (UniProt P48730)
DDR1 = DDR1 (UniProt Q08345)
DYRK1B = DYRK1B (UniProt Q9Y463)
DYRK2 = DYRK2 (UniProt Q92630)
EGFR = EGFR (UniProt P00533)
EGFR_G719S = EGFR_G719S (UniProt P00533)
EGFR_G719S_T790M = EGFR_G719S_T790M (UniProt P00533)
EGFR_L718V = EGFR_L718V (UniProt P00533)
EGFR_L858R = EGFR_L858R (UniProt P00533)
EGFR_L861Q = EGFR_L861Q (UniProt P00533)
EGFR_T790M = EGFR_T790M (UniProt P00533)
EPHA2 = EPHA2 (UniProt P29317)
ERBB3 = ERBB3 (UniProt P21860)
[1] = molecular target: ERBB4_R711C (clone: ERBB4_mut) (UniProt Q15303)

Row | Compound | kinase-Nluc reporter destabilization hit call (CDK7) | kinase-Nluc reporter destabilization hit call (CDK9) | kinase-Nluc reporter destabilization hit call (CHEK2) | kinase-Nluc reporter destabilization hit call (CSF1R) | kinase-Nluc reporter destabilization hit call (CSK) | kinase-Nluc reporter destabilization hit call (CSNK1A1) | kinase-Nluc reporter destabilization hit call (CSNK1D) | kinase-Nluc reporter destabilization hit call (DDR1) | kinase-Nluc reporter destabilization hit call (DYRK1B) | kinase-Nluc reporter destabilization hit call (DYRK2) | kinase-Nluc reporter destabilization hit call (EGFR) | kinase-Nluc reporter destabilization hit call (EGFR_G719S) | kinase-Nluc reporter destabilization hit call (EGFR_G719S_T790M) | kinase-Nluc reporter destabilization hit call (EGFR_L718V) | kinase-Nluc reporter destabilization hit call (EGFR_L858R) | kinase-Nluc reporter destabilization hit call (EGFR_L861Q) | kinase-Nluc reporter destabilization hit call (EGFR_T790M) | kinase-Nluc reporter destabilization hit call (EPHA2) | kinase-Nluc reporter destabilization hit call (ERBB3) | kinase-Nluc reporter destabilization hit call [1]
1 | N[C@H](Cc1c[nH]c2ccccc12)C(=O)N/N=C/c1ccc2nccnc2c1 [Rhosin (hydrochloride)] (10 µM) | inactive: 0 | inactive: 0 | inactive: 0 | inactive: 0 | inactive: 0 | inactive: 0 | inactive: 0 | inactive: 0 | inactive: 0 | inactive: 0 | inactive: 0 | inactive: 0 | inactive: 0 | inactive: 0 | inactive: 0 | inactive: 0 | inactive: 0 | inactive: 0 | inactive: 0 | inactive: 0
2 | O=C1Nc2nc(-c3c(O)cccc3OCC3CC3)cc([C@@H]3CCCNC3)c2CO1 [Bay 65-1942 (hydrochloride)] (10 µM) | inactive: 0 | inactive: 0 | inactive: 0 | inactive: 0 | inactive: 0 | inactive: 0 | inactive: 0 | inactive: 0 | inactive: 0 | inactive: 0 | inactive: 0 | inactive: 0 | inactive: 0 | inactive: 0 | inactive: 0 | inactive: 0 | inactive: 0 | inactive: 0 | inactive: 0 | inactive: 0
3 | O=C(/C=C/c1ccc(O)c(O)c1)OC1CC(OC(=O)/C=C/c2ccc(O)c(O)c2)(C(=O)O)CC(O)C1O (stereo not given) [1,3-Dicaffeoylquinic acid] (10 µM) | inactive: 0 | inactive: 0 | inactive: 0 | inactive: 0 | inactive: 0 | inactive: 0 | inactive: 0 | inactive: 0 | inactive: 0 | inactive: 0 | inactive: 0 | inactive: 0 | inactive: 0 | inactive: 0 | inactive: 0 | inactive: 0 | inactive: 0 | inactive: 0 | inactive: 0 | inactive: 0
4 | Cc1c(CN2CCN(C(=O)[C@H](C)O)CC2)sc2c(N3CCOCC3)nc(-c3cnc(N)nc3)nc12 [Apitolisib] (10 µM) | active: 1 | inactive: 0 | inactive: 0 | inactive: 0 | inactive: 0 | inactive: 0 | inactive: 0 | inactive: 0 | inactive: 0 | inactive: 0 | inactive: 0 | inactive: 0 | inactive: 0 | inactive: 0 | inactive: 0 | inactive: 0 | inactive: 0 | inactive: 0 | inactive: 0 | inactive: 0
5 | COc1ccc(C(=C2C(=O)Nc3ccccc32)c2ccc(OC)cc2)cc1 (10 µM) | inactive: 0 | inactive: 0 | inactive: 0 | inactive: 0 | inactive: 0 | inactive: 0 | inactive: 0 | inactive: 0 | inactive: 0 | inactive: 0 | inactive: 0 | inactive: 0 | inactive: 0 | inactive: 0 | inactive: 0 | inactive: 0 | inactive: 0 | inactive: 0 | inactive: 0 | inactive: 0
6 | O=C(NCCO)c1ccc2c(c1)nc(Nc1cccc(Cl)c1)c1ccncc12 [CK2 inhibitor 2] (10 µM) | inactive: 0 | inactive: 0 | inactive: 0 | inactive: 0 | inactive: 0 | inactive: 0 | inactive: 0 | inactive: 0 | inactive: 0 | inactive: 0 | inactive: 0 | inactive: 0 | inactive: 0 | inactive: 0 | inactive: 0 | inactive: 0 | inactive: 0 | inactive: 0 | inactive: 0 | inactive: 0
7 | O=C(NCCCNc1nc(Nc2cccc(NC(=O)N3CCCC3)c2)ncc1I)c1cccs1 (2.5 µM) | inactive: 0 | inactive: 0 | inactive: 0 | inactive: 0 | inactive: 0 | inactive: 0 | inactive: 0 | inactive: 0 | inactive: 0 | inactive: 0 | inactive: 0 | inactive: 0 | inactive: 0 | inactive: 0 | inactive: 0 | inactive: 0 | inactive: 0 | inactive: 0 | inactive: 0 | inactive: 0
8 | COC1(C(=O)N2Cc3nc(Cl)nc(N[C@H](C)c4cc(N)cc(C(F)(F)F)c4)c3C2)CCOCC1 (10 µM) | inactive: 0 | inactive: 0 | inactive: 0 | inactive: 0 | inactive: 0 | inactive: 0 | inactive: 0 | inactive: 0 | inactive: 0 | inactive: 0 | inactive: 0 | inactive: 0 | inactive: 0 | inactive: 0 | inactive: 0 | inactive: 0 | inactive: 0 | inactive: 0 | inactive: 0 | inactive: 0
9 | C=CC(=O)Nc1cccc(C)c1Nc1ncc2cc(-c3c(Cl)c(OC)cc(OC)c3Cl)ccc2n1 (2.5 µM) | inactive: 0 | inactive: 0 | inactive: 0 | inactive: 0 | inactive: 0 | inactive: 0 | inactive: 0 | inactive: 0 | inactive: 0 | inactive: 0 | inactive: 0 | inactive: 0 | inactive: 0 | inactive: 0 | inactive: 0 | inactive: 0 | inactive: 0 | inactive: 0 | inactive: 0 | inactive: 0
10 | O=C(Nc1ccc2[nH]nc(-c3ccncc3)c2c1)[C@@H]1CCN(CC(=O)N2CCN(c3ccc(-c4ncccn4)cc3)CC2)C1 (2.5 µM) | inactive: 0 | inactive: 0 | inactive: 0 | inactive: 0 | inactive: 0 | inactive: 0 | inactive: 0 | inactive: 0 | inactive: 0 | inactive: 0 | inactive: 0 | inactive: 0 | inactive: 0 | inactive: 0 | inactive: 0 | inactive: 0 | inactive: 0 | inactive: 0 | inactive: 0 | inactive: 0
11 | CCN(CC)S(=O)(=O)c1ccc(OC)c(N2CCN(C(=O)c3ccc(F)cc3C(F)(F)F)CC2)c1 (10 µM) | inactive: 0 | inactive: 0 | inactive: 0 | inactive: 0 | inactive: 0 | inactive: 0 | inactive: 0 | inactive: 0 | inactive: 0 | inactive: 0 | inactive: 0 | inactive: 0 | inactive: 0 | inactive: 0 | inactive: 0 | inactive: 0 | inactive: 0 | inactive: 0 | inactive: 0 | inactive: 0
12 | CC(C)(C)NC(=O)c1cncn1C1CCN(c2ccc(-c3nnc(C(F)(F)F)o3)cn2)CC1 (10 µM) | inactive: 0 | inactive: 0 | inactive: 0 | inactive: 0 | inactive: 0 | inactive: 0 | inactive: 0 | inactive: 0 | inactive: 0 | inactive: 0 | inactive: 0 | inactive: 0 | inactive: 0 | inactive: 0 | inactive: 0 | inactive: 0 | inactive: 0 | inactive: 0 | inactive: 0 | inactive: 0
13 | Cc1ccc(-c2c(C(=O)CF)n(CCCO)c3ncnc(N)c23)cc1 (10 µM) | inactive: 0 | inactive: 0 | inactive: 0 | inactive: 0 | inactive: 0 | inactive: 0 | inactive: 0 | inactive: 0 | inactive: 0 | inactive: 0 | inactive: 0 | inactive: 0 | inactive: 0 | inactive: 0 | inactive: 0 | inactive: 0 | inactive: 0 | inactive: 0 | inactive: 0 | inactive: 0
14 | Nc1ncc(-c2cccc(N3CCNCC3)c2)cc1C(=O)Nc1ccncc1 [PKC-iota inhibitor 1] (10 µM) | inactive: 0 | inactive: 0 | inactive: 0 | inactive: 0 | inactive: 0 | inactive: 0 | inactive: 0 | inactive: 0 | inactive: 0 | inactive: 0 | inactive: 0 | inactive: 0 | inactive: 0 | inactive: 0 | inactive: 0 | inactive: 0 | inactive: 0 | inactive: 0 | inactive: 0 | inactive: 0
15 | CN1C(=O)C(Cc2c[nH]c3ccccc23)NC1=S (stereo not given) [Necrostatin-1] (10 µM) | inactive: 0 | inactive: 0 | inactive: 0 | inactive: 0 | inactive: 0 | inactive: 0 | inactive: 0 | inactive: 0 | inactive: 0 | inactive: 0 | inactive: 0 | inactive: 0 | inactive: 0 | inactive: 0 | inactive: 0 | inactive: 0 | inactive: 0 | inactive: 0 | inactive: 0 | inactive: 0
16 | CCN(CC)c1ccc2cc(C(=O)N3CCN(C(=O)C4=Cc5c(Br)cccc5S4(=O)=O)CC3)c(=O)oc2c1 (2 µM) | inactive: 0 | inactive: 0 | inactive: 0 | inactive: 0 | inactive: 0 | inactive: 0 | inactive: 0 | inactive: 0 | inactive: 0 | inactive: 0 | inactive: 0 | inactive: 0 | inactive: 0 | inactive: 0 | inactive: 0 | inactive: 0 | inactive: 0 | inactive: 0 | inactive: 0 | inactive: 0
17 | CC[C@@]1(c2ccccc2)C2=C(CC(C)(C)CC2=O)Nc2[nH]ncc21 (10 µM) | inactive: 0 | inactive: 0 | inactive: 0 | inactive: 0 | inactive: 0 | inactive: 0 | inactive: 0 | inactive: 0 | inactive: 0 | inactive: 0 | inactive: 0 | inactive: 0 | inactive: 0 | inactive: 0 | inactive: 0 | inactive: 0 | inactive: 0 | inactive: 0 | inactive: 0 | inactive: 0
18 | CC(C)CN[C@H]1CS(=O)(=O)C[C@@H]1S(=O)(=O)c1ccc(Cl)cc1 (10 µM) | inactive: 0 | inactive: 0 | inactive: 0 | inactive: 0 | inactive: 0 | inactive: 0 | inactive: 0 | inactive: 0 | inactive: 0 | inactive: 0 | inactive: 0 | inactive: 0 | inactive: 0 | inactive: 0 | inactive: 0 | inactive: 0 | inactive: 0 | inactive: 0 | inactive: 0 | inactive: 0

Entries 13 to 14, reprinted for reference:
Row | Compound | kinase-Nluc reporter destabilization hit call (CDK7) | kinase-Nluc reporter destabilization hit call (CDK9) | kinase-Nluc reporter destabilization hit call (CHEK2) | kinase-Nluc reporter destabilization hit call (CSF1R) | kinase-Nluc reporter destabilization hit call (CSK) | kinase-Nluc reporter destabilization hit call (CSNK1A1) | kinase-Nluc reporter destabilization hit call (CSNK1D) | kinase-Nluc reporter destabilization hit call (DDR1) | kinase-Nluc reporter destabilization hit call (DYRK1B) | kinase-Nluc reporter destabilization hit call (DYRK2) | kinase-Nluc reporter destabilization hit call (EGFR) | kinase-Nluc reporter destabilization hit call (EGFR_G719S) | kinase-Nluc reporter destabilization hit call (EGFR_G719S_T790M) | kinase-Nluc reporter destabilization hit call (EGFR_L718V) | kinase-Nluc reporter destabilization hit call (EGFR_L858R) | kinase-Nluc reporter destabilization hit call (EGFR_L861Q) | kinase-Nluc reporter destabilization hit call (EGFR_T790M) | kinase-Nluc reporter destabilization hit call (EPHA2) | kinase-Nluc reporter destabilization hit call (ERBB3) | kinase-Nluc reporter destabilization hit call [1]
13 | Cc1ccc(-c2c(C(=O)CF)n(CCCO)c3ncnc(N)c23)cc1 (10 µM) | inactive: 0 | inactive: 0 | inactive: 0 | inactive: 0 | inactive: 0 | inactive: 0 | inactive: 0 | inactive: 0 | inactive: 0 | inactive: 0 | inactive: 0 | inactive: 0 | inactive: 0 | inactive: 0 | inactive: 0 | inactive: 0 | inactive: 0 | inactive: 0 | inactive: 0 | inactive: 0
14 | Nc1ncc(-c2cccc(N3CCNCC3)c2)cc1C(=O)Nc1ccncc1 [PKC-iota inhibitor 1] (10 µM) | inactive: 0 | inactive: 0 | inactive: 0 | inactive: 0 | inactive: 0 | inactive: 0 | inactive: 0 | inactive: 0 | inactive: 0 | inactive: 0 | inactive: 0 | inactive: 0 | inactive: 0 | inactive: 0 | inactive: 0 | inactive: 0 | inactive: 0 | inactive: 0 | inactive: 0 | inactive: 0
